Results are given in words; binding and its absence hold for the method and conditions named. In cells and extracts the contact can be indirect. Some binding calls cover weakened binding; strength is not graded here.
Target: T1, Nuclear Factor Erythroid 2-Related Factor 2 (NFE2L2, Nrf2), endogenous in NIH-3T3 fibroblasts (mouse (endogenous in NIH-3T3)) (UniProt Q60795)
T1 sequence: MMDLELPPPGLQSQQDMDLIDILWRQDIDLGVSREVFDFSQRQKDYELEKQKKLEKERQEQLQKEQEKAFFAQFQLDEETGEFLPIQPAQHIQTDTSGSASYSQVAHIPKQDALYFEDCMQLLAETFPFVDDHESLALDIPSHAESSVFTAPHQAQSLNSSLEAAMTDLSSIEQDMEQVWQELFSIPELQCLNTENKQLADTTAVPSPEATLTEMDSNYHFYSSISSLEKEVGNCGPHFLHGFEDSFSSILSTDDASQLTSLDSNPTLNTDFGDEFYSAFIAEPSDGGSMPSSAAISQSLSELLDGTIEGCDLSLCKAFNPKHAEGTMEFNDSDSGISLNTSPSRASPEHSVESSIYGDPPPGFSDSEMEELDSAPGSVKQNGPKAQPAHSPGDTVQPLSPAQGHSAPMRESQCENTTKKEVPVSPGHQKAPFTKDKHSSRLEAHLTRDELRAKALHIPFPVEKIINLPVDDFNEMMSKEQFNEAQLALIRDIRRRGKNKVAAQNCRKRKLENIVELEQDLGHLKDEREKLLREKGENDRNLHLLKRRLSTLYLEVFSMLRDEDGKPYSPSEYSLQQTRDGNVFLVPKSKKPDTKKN
Assay: co-IP; NIH-3T3 lysate in NETN buffer (20 mM Tris pH 8.0, 100 mM NaCl, 1 mM EDTA, 0.5% NP-40), 1000 ug lysate, Protein G Sepharose beads and the indicated antibodies, immunoblot with anti-Nrf2 and anti-CUL3; cells treated with MG132, with or without miR-1290 mimic and CUL3 overexpression

Chains of the proteins cited; added tags and fusions are not shown.
UniProt Q9JLV5: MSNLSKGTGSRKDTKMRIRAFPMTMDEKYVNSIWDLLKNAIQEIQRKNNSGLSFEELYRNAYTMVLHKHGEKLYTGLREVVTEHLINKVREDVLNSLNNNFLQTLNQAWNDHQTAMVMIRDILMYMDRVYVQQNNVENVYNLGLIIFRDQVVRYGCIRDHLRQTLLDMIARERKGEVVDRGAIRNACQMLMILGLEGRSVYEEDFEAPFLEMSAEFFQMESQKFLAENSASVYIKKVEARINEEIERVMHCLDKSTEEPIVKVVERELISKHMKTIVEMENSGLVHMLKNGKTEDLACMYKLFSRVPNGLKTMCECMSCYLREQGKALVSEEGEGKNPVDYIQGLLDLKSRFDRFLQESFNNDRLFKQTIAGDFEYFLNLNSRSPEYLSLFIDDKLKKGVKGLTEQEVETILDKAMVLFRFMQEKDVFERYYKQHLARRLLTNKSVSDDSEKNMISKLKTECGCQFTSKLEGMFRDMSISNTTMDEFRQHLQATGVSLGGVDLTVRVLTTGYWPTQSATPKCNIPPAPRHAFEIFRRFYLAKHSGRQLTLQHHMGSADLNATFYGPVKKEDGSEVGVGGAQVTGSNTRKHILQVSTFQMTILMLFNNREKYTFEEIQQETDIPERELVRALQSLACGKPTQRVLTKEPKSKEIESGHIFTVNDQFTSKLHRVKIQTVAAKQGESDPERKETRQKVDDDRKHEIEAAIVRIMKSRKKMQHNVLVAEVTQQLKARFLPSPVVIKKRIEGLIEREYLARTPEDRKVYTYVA

With “Cullin3 (CUL3), endogenous in NIH-3T3 fibroblasts (from UniProt Q9JLV5 1-768)” the binding was “binds”.
